According to the supplement of paper PMC10849652:
The list shows a part of the results.

Sequences of proteins named here, by UniProt entry; tags and fusion partners are left off. A change or cut given only in a name is not applied to a line headed by its entry.
UniProt Q16134: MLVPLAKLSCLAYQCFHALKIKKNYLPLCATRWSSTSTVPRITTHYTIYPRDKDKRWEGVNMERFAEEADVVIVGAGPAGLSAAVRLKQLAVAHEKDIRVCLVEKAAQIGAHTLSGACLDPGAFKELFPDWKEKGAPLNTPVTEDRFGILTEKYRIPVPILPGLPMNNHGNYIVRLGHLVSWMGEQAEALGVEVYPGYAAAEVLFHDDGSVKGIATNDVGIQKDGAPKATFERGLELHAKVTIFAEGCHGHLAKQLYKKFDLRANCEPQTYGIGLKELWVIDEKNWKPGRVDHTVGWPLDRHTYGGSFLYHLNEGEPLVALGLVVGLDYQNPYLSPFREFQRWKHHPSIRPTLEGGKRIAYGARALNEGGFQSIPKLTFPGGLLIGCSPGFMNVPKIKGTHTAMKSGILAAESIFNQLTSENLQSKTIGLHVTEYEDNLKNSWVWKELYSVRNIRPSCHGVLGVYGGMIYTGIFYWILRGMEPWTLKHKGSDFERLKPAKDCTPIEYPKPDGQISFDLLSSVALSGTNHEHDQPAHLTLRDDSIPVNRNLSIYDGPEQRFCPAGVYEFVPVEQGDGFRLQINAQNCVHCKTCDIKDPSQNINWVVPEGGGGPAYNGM
UniProt Q96DF8: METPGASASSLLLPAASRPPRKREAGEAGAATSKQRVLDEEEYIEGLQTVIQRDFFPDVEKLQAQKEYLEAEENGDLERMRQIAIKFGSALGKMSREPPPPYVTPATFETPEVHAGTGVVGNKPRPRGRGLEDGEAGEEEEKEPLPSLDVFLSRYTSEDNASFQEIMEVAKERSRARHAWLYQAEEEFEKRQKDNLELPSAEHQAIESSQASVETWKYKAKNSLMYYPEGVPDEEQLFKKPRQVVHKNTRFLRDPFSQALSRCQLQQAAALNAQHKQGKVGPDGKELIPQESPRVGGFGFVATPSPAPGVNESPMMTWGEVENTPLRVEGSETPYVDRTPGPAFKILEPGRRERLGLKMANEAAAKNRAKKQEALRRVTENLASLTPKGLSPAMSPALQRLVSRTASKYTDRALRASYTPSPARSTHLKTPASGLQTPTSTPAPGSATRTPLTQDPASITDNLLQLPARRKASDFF
UniProt Q8TAG9: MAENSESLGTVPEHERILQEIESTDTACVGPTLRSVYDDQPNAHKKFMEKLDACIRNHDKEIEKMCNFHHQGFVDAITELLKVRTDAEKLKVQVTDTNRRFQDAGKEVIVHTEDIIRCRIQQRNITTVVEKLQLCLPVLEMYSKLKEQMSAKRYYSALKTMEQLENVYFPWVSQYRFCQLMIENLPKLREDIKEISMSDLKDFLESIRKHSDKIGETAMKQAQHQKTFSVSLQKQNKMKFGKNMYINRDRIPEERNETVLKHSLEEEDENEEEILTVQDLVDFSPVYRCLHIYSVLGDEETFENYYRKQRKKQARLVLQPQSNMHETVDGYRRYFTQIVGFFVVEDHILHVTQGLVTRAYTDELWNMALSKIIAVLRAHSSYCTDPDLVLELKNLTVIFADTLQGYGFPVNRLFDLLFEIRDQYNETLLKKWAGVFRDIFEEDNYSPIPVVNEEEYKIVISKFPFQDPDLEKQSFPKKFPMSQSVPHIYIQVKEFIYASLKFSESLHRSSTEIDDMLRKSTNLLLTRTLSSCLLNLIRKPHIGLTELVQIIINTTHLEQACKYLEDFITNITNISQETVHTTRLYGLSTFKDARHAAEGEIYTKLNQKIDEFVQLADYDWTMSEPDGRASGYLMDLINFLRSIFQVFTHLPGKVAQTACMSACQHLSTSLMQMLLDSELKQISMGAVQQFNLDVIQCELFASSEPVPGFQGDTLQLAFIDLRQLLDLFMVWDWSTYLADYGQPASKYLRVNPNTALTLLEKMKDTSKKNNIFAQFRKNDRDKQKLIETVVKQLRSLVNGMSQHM
UniProt Q9UBQ6: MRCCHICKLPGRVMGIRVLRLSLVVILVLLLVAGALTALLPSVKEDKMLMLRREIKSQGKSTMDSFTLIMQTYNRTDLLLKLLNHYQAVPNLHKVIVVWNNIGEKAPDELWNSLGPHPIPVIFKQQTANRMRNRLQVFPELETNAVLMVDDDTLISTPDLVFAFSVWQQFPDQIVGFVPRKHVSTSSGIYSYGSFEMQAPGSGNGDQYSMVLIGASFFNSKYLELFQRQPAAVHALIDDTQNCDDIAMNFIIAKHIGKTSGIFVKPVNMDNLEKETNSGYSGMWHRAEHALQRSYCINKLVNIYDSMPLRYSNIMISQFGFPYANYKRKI
UniProt Q15024, whole entry, looked up: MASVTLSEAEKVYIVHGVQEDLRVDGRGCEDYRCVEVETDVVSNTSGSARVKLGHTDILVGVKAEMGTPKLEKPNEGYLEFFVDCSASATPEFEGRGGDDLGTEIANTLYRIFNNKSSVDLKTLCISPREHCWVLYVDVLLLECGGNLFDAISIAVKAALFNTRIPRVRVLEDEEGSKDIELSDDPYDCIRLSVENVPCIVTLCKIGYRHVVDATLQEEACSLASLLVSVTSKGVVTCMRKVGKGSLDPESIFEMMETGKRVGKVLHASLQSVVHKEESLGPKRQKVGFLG
UniProt Q0VG06: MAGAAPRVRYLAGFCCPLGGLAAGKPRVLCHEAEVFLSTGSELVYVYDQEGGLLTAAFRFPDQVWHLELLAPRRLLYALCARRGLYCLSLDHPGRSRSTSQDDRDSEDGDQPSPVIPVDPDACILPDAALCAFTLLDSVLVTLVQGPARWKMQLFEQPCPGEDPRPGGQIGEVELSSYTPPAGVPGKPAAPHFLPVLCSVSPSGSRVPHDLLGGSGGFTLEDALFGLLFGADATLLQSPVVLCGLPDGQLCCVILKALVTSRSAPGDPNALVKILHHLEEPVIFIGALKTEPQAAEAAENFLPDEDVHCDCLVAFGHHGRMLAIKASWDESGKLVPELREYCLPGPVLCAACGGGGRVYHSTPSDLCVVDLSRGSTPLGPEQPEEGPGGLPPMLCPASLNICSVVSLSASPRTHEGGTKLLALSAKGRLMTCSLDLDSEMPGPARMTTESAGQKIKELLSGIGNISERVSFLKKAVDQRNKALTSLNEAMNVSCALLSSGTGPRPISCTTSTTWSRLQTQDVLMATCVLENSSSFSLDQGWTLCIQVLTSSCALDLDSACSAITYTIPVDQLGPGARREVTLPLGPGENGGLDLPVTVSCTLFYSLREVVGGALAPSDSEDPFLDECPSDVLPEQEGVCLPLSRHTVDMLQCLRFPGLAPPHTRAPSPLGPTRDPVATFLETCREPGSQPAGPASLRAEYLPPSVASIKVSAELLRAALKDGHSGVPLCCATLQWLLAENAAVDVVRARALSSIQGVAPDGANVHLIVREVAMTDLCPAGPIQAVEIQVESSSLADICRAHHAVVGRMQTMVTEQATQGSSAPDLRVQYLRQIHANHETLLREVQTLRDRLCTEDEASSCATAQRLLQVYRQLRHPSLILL
UniProt Q6P587: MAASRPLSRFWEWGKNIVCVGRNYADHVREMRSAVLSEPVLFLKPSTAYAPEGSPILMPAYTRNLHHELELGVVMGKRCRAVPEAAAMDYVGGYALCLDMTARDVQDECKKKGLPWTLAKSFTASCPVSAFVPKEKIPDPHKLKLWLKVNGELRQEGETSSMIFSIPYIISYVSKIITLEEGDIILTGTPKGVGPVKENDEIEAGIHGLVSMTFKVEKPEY
UniProt O60645: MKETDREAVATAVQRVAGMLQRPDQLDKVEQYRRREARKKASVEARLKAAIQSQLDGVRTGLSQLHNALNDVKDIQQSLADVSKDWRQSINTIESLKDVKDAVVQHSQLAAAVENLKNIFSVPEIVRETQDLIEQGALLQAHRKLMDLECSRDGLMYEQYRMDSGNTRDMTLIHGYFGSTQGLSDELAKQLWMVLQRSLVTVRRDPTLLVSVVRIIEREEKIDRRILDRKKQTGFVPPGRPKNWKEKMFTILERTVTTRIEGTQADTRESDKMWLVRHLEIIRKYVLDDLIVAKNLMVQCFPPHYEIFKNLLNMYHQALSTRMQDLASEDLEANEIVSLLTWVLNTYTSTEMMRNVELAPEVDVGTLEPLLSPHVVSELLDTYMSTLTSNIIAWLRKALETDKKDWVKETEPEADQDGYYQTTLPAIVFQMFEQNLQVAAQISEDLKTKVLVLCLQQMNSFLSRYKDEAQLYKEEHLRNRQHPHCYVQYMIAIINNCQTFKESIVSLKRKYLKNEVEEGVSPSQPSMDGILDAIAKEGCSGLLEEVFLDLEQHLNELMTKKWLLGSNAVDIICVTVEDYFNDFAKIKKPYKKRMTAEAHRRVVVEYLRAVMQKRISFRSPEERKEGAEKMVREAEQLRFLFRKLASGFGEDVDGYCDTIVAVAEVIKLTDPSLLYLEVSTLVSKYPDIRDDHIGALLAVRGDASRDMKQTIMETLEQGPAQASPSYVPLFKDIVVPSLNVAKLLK
UniProt Q9Y282: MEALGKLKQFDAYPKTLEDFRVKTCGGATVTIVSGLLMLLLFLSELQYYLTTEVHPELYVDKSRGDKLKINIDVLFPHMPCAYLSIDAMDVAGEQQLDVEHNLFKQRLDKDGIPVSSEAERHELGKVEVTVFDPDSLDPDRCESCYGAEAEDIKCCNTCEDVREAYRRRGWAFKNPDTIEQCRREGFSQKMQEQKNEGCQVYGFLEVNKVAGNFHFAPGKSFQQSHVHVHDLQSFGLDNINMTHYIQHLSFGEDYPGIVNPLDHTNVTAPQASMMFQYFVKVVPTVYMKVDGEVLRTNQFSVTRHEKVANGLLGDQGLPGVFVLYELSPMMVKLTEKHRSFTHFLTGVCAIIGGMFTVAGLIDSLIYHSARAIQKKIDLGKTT
UniProt Q96PL5: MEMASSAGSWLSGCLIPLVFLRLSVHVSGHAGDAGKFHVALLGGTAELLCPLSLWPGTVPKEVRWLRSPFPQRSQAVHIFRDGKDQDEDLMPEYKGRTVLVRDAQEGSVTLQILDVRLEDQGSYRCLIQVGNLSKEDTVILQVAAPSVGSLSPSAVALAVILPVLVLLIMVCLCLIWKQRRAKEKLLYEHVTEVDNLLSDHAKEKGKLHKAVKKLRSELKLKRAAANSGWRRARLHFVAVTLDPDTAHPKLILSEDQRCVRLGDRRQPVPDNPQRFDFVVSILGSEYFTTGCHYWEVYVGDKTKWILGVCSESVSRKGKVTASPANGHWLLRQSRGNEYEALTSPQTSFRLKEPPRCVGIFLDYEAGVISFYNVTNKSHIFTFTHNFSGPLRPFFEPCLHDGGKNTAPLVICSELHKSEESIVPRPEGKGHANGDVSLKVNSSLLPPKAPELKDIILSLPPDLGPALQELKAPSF
UniProt Q9UNN5: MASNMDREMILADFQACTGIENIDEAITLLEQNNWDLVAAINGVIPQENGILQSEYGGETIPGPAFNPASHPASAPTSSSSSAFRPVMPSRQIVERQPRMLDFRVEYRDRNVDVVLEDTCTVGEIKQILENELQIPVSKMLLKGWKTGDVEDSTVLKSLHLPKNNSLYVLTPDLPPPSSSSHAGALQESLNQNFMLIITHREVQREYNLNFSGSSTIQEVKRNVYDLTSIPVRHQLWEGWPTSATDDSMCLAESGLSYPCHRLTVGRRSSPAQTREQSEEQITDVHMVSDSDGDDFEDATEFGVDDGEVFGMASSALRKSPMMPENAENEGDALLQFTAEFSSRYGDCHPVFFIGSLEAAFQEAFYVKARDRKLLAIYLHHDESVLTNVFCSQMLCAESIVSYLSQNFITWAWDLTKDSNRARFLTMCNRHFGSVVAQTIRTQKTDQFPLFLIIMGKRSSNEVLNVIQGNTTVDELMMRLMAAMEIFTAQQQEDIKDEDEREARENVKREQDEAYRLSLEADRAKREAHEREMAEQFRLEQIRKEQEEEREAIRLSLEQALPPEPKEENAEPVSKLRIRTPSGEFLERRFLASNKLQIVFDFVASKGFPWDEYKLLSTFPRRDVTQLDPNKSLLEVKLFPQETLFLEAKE
UniProt Q01844: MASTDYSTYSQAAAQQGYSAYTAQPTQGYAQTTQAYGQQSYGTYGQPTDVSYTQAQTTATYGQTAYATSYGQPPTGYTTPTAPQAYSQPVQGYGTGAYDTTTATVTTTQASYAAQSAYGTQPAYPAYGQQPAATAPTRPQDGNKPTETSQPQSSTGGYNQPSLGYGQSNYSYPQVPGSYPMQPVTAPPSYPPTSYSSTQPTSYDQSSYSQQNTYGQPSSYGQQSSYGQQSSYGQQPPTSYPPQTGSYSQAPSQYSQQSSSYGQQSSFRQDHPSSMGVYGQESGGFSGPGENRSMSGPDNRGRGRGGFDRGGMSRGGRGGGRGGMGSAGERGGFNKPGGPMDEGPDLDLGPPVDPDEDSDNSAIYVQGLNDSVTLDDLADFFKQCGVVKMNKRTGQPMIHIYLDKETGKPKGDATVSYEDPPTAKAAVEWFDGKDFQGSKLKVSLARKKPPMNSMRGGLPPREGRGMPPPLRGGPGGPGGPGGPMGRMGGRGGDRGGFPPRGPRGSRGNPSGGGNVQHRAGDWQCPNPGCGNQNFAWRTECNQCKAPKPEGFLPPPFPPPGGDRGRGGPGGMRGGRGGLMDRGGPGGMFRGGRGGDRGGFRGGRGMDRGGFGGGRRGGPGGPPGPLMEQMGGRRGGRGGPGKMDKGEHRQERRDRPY

Columns and labels:
Assay in all cases: log2 fold change, soluble protein after heating vs DMSO (PISA); higher = thermal stabilisation; K562 cells, 10 uM, 30 min; active = over 0.2 and 3.5 SD of the protein, either way, in both replicates (recomputed)
[1] = compound: CC1=C(C=C(C=C1)NC(=O)C2=CC(=CC=C2)C(C)(C)C#N)NC3=CC4=C(C=C3)N=CN(C4=O)C
Summary of the method: (§1)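 Quantification of soluble protein used TMTpro 16plex LC-MS/MS, with channel sums equalised. Samples were the supernatant after 21,000xg for 90 min of pooled aliquots from K562 cells (2×10^6 cells/mL) treated with 10 μM compound for 30 min, heated for 3 min over 48°C-58°C, and extracted in PBS with 0.5% NP-40 at 4°C. Values, from duplicates, describe thermal stability against control samples on a log2 fold-change scale.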

[2] = compound: CC1=C(C=C(C=C1)NC(=O)C2=CC(=CC=C2)N(C)C)NC(=O)C3=CC=C(C=C3)O
Summary of the method: as §1

[3] = compound: CC1=CC=C(C=C1)SC2=C3C=C(SC3=CN=C2)C(=O)N
Summary of the method: as §1

[4] = compound: CC1=NC(=CC=C1)C2=C(N=C(N2)C(C)(C)C)C3=CC4=NC=CN=C4C=C3
Summary of the method: as §1

Nexturastat A = compound: CCCCN(Cc1ccc(C(=O)NO)cc1)C(=O)Nc1ccccc1 [Nexturastat A]
Summary of the method: as §1

vemurafenib = compound: CCCS(=O)(=O)Nc1ccc(F)c(C(=O)c2c[nH]c3ncc(-c4ccc(Cl)cc4)cc23)c1F [vemurafenib]
Summary of the method: as §1

[5] = compound: CCCS(=O)(=O)Nc1ccc(F)c(C(=O)c2c[nH]c3ncc(Cl)cc23)c1F
Summary of the method: as §1

[6] = compound: CCCc1cc(C)[nH]c(=O)c1CNC(=O)c1cc(-c2ccnc(N3CCN(C)CC3)c2)cc2c1cnn2C(C)C
Summary of the method: as §1

givinostat = compound: CCN(CC)Cc1ccc2cc(COC(=O)Nc3ccc(C(=O)NO)cc3)ccc2c1 [givinostat]
Summary of the method: as §1

barasertib = compound: CCN(CCCOc1ccc2c(Nc3cc(CC(=O)Nc4cccc(F)c4)[nH]n3)ncnc2c1)CCOP(=O)(O)O [barasertib]
Summary of the method: as §1

Measured: log2 fold change

ETFDH (UniProt Q16134)
inactive: [1] 0.023 | [2] -0.006 | [3] 0.028 | [4] 0.01 | Nexturastat A -0.05 | vemurafenib 0 | [5] -0.001 | [6] -0.067 | givinostat -0.029 | barasertib 0.012

EPHX1 (UniProt P07099)
inactive: [1] -0.008 | [2] -0.012 | [3] -0.008 | [4] -0.018 | Nexturastat A -0.048 | vemurafenib 0.02 | [5] 0.081 | [6] -0.048 | givinostat -0.014 | barasertib -0.044

ESS2 (UniProt Q96DF8)
inactive: [1] -0.085 | [2] 0.091 | [3] -0.024 | [4] -0.018 | Nexturastat A 0.032 | vemurafenib -0.01 | [5] -0.013 | [6] -0.075 | givinostat -0.01 | barasertib -0.025

EXOC6 (UniProt Q8TAG9)
inactive: [1] -0.054 | [2] -0.028 | [3] 0.104 | [4] 0.032 | Nexturastat A 0.133 | vemurafenib 0.104 | [5] 0.022 | [6] 0.009 | givinostat 0.075 | barasertib -0.018

EXTL2 (UniProt Q9UBQ6)
inactive: [1] 0.072 | [2] -0.003 | [3] -0.017 | [4] -0.003 | Nexturastat A -0.163 | vemurafenib -0.002 | [5] -0.031 | [6] -0.043 | givinostat -0.039 | barasertib -0.053

ERCC3 (UniProt P19447)
inactive: [1] -0.013 | [2] 0.022 | [3] 0.108 | [4] -0.168 | Nexturastat A 0.137 | vemurafenib 0.004 | [5] 0.096 | [6] 0.141 | givinostat 0.136 | barasertib 0.087

F2 (UniProt P00734)
inactive: [1] -0.1 | [2] 0.081 | [3] 0.084 | [4] 0.092 | Nexturastat A 0.052 | vemurafenib 0.075 | [5] -0.133 | [6] -0.059 | givinostat -0.098 | barasertib 0.06

ERCC4 (UniProt Q92889)
inactive: [1] 0.053 | [2] -0.071 | [3] 0.001 | [4] 0.022 | Nexturastat A -0.077 | vemurafenib -0.076 | [5] 0 | [6] -0.755 | givinostat 0.061 | barasertib 0.101

EXTL3 (UniProt O43909)
inactive: [1] -0.198 | [2] -0.083 | [3] -0.055 | [4] 0.055 | Nexturastat A -0.098 | vemurafenib -0.026 | [5] -0.02 | [6] 0.077 | barasertib 0.069

ESYT1 isoform 2 (UniProt Q9BSJ8)
inactive: [1] 0.117 | [2] -0.052 | [3] -0.007 | [4] 0.003 | Nexturastat A 0.045 | vemurafenib 0.01 | [5] 0.048 | [6] 0.148 | givinostat 0.116 | barasertib 0.046

ERCC2 (UniProt P18074)
inactive: [1] -0.024 | [2] 0.014 | [3] -0.005 | [4] -0.038 | Nexturastat A 0.035 | vemurafenib 0.166 | [5] 0.036 | [6] 0.021 | givinostat 0.095 | barasertib -0.007

EXOSC7 (UniProt Q15024)
inactive: [1] -0.038 | [2] 0.004 | [3] -0.036 | [4] -0.045 | Nexturastat A 0.018 | vemurafenib -0.041 | [5] -0.059 | [6] -0.04 | givinostat -0.014 | barasertib -0.013

FAAP100 (UniProt Q0VG06)
active: Nexturastat A -0.327
inactive: [1] -0.004 | [2] -0.001 | [3] -0.039 | [4] 0.066 | vemurafenib 0 | [5] -0.033 | [6] 0.167 | givinostat 0.024 | barasertib 0.051

EXT2 isoform 3 (UniProt Q93063)
inactive: [1] 0.034 | [2] 0 | [3] -0.042 | [4] -0.019 | Nexturastat A 0.142 | vemurafenib -0.04 | [5] -0.055 | [6] 0.043 | givinostat 0.031 | barasertib -0.007

FAM118B (UniProt Q9BPY3)
inactive: [1] 0 | [2] 0.03 | [3] 0.037 | [4] 0.055 | Nexturastat A 0.099 | vemurafenib 0.048 | [5] 0.003 | [6] 0.044 | givinostat 0.063 | barasertib 0.093

FAHD1 (UniProt Q6P587)
inactive: [1] -0.034 | [2] 0.016 | [3] 0.011 | [4] 0 | Nexturastat A -0.048 | vemurafenib 0 | [5] -0.01 | [6] -0.054 | givinostat 0.002 | barasertib -0.002

ERG28 (UniProt Q9UKR5)
inactive: [1] 0.2 | [2] -0.088 | [3] -0.08 | [4] 0.04 | Nexturastat A -0.078 | vemurafenib -0.088 | [5] 0.072 | [6] 0.144 | givinostat -0.027 | barasertib -0.026

EXOC3 (UniProt O60645)
inactive: [1] -0.031 | [2] -0.035 | [3] -0.024 | [4] -0.091 | Nexturastat A 0.174 | vemurafenib -0.072 | [5] 0.054 | [6] 0.07 | givinostat 0.128 | barasertib 0.029

EXOC7 (UniProt Q9UPT5)
inactive: [1] -0.116 | [2] -0.057 | [3] -0.014 | [4] -0.05 | Nexturastat A 0.065 | vemurafenib 0.032 | [5] 0.07 | [6] 0.079 | givinostat 0.09 | barasertib 0.036

2 records picked at random from those above, as already listed:
EXOC3 (UniProt O60645)
inactive: [1] -0.031 | [2] -0.035 | [3] -0.024 | [4] -0.091 | Nexturastat A 0.174 | vemurafenib -0.072 | [5] 0.054 | [6] 0.07 | givinostat 0.128 | barasertib 0.029

EXOC7 (UniProt Q9UPT5)
inactive: [1] -0.116 | [2] -0.057 | [3] -0.014 | [4] -0.05 | Nexturastat A 0.065 | vemurafenib 0.032 | [5] 0.07 | [6] 0.079 | givinostat 0.09 | barasertib 0.036

(next part)

ERLEC1 (UniProt Q96DZ1)
inactive: [1] 0.033 | [2] -0.001 | [3] -0.015 | [4] 0.006 | Nexturastat A 0.017 | vemurafenib -0.021 | [5] 0.003 | [6] -0.064 | givinostat -0.016 | barasertib -0.003

ERGIC3 isoform 3 (UniProt Q9Y282)
inactive: [1] -0.035 | [2] -0.006 | [3] 0.011 | [4] 0.023 | Nexturastat A -0.122 | vemurafenib 0.045 | [5] 0.039 | [6] -0.022 | givinostat 0.018 | barasertib -0.004

ERMAP (UniProt Q96PL5)
inactive: [1] -0.15 | [2] 0.051 | [3] -0.057 | [4] 0.061 | Nexturastat A -0.054 | vemurafenib -0.04 | [5] -0.097 | [6] -0.166 | givinostat 0.057 | barasertib -0.025

FAF1 (UniProt Q9UNN5)
inactive: [1] 0.011 | [2] 0.02 | [3] 0.007 | [4] 0.031 | Nexturastat A -0.033 | vemurafenib 0.02 | [5] 0.03 | [6] -0.026 | givinostat -0.035 | barasertib -0.009

EWSR1 isoform 5 (UniProt Q01844)
inactive: [1] -0.021 | [2] 0.012 | [3] -0.054 | [4] 0.021 | Nexturastat A 0.083 | vemurafenib 0.005 | [5] 0.019 | [6] -0.014 | givinostat -0.024 | barasertib -0.047

EPS15 (UniProt P42566)
inactive: [1] -0.007 | [2] -0.018 | [3] 0.004 | [4] 0.024 | Nexturastat A 0.007 | vemurafenib 0.066 | [5] 0.059 | [6] 0.014 | givinostat -0.004 | barasertib 0.048

EVC2 (UniProt Q86UK5)
inactive: [1] -0.263 | [2] -0.146 | [3] -0.006 | [4] -0.018 | Nexturastat A 0.046 | vemurafenib -0.073 | [5] -0.054 | [6] 0.16 | givinostat 0.06 | barasertib -0.064
